Measured data: PubChem BioAssay AID504808 (Drosophila RNAi Screening Center, 2011)

Test: 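Chromatin factors that keep E2F targets switched off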 (primary screen)
Cells: Drosophila S2 cells
Knock-down reagent: long dsRNA against Drosophila genes
Read-out: 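Firefly luciferase driven by E2F sites, normalised to Renilla luciferase on the same minimal promoter, measured by plate reader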
Direction: E2F firefly: higher = more E2F reporter activity; Renilla normaliser: higher = more normaliser reporter signal
Hit rule: 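a knock-down counted as active when the firefly/Renilla E2F signal rose above 50%, a threshold chosen arbitrarily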
The deposit covers about 21,000 reagents; below is an unselected part of those with a known target gene and a result. In the full data, 18 (0.084%) were called active. 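Raw counts without plate normalisation, one of two replicates; the ratio scores behind the calls were not deposited.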 Entries without a mark were called inactive. Reagents against one gene are numbered here. A plus sign joins genes that one reagent is predicted to hit. Not given: the amount of reagent, the time to read-out.

gene | reagent | E2F firefly, rep 1 | Renilla normaliser, rep 1
CG11279 (GeneID 39486) | 1 | 1.27e5 | 7161
CG32450 (GeneID 318034) | 1 | 91045 | 3832
sqa (GeneID 36002) | 1 | 3058 | 188
hfp (GeneID 38173) | 1 | 84200 | 4310
hfp (GeneID 38173) | 2 | 94640 | 4146
Adss (GeneID 42466) | 1 | 68645 | 4141
CG4793 (GeneID 34941) | 1 | 1.11e5 | 4202
spab (GeneID 35901) | 1 | 1.53e5 | 4819
mRpL11 (GeneID 41757) | 1 | 1.12e5 | 5886
Sodh1 (GeneID 40836) | 1 | 69244 | 3662
Alr (GeneID 32991) | 1 | 1.68e5 | 5703
app (GeneID 39399) | 1 | 1.39e5 | 5447
app (GeneID 39399) | 2 | 1.20e5 | 6600
app (GeneID 39399) | 3 | 93466 | 4297
Karl (GeneID 32131) | 1 | 8382 | 816
CG14297 (GeneID 42260) | 1 | 1.55e5 | 10171
inaF-A (GeneID 5740676) | 1 | 56652 | 4431
CG31683 + CG18858 | 1 | 1.06e5 | 4150
rumpel (GeneID 31674) | 1 | 1.15e5 | 6026
CG34047 (retired record) (GeneID 3885666) | 1 | 1.48e5 | 4018
RpS3 (GeneID 42761) | 1 | 43609 | 6140
CG9706 (GeneID 39876) | 1 | 74116 | 3556
ptc (GeneID 35851) | 1 | 1.32e5 | 5932
ptc (GeneID 35851) | 2 | 1.55e5 | 5070
S6kII (GeneID 33139) | 1 | 1.61e5 | 5631
CG33255 (retired record) + hpRNA:CR32205 | 1 | 87488 | 3389
CG33255 (retired record) + hpRNA:CR32205 | 2 | 92540 | 4092
CR13656 (GeneID 8674041) | 1 | 86223 | 2286
CR13656 (GeneID 8674041) | 2 | 1.10e5 | 6065
CG14427 (GeneID 31651) | 1 | 5095 | 302
Sgs8 (GeneID 39285) | 1 | 1.26e5 | 7363
Rab3-GEF (GeneID 32442) | 1 | 2.26e5 | 6112
Rab3-GEF (GeneID 32442) | 2 | 2.26e5 | 5137
Rab3-GEF (GeneID 32442) | 3 | 1.25e5 | 4727
